In publication PMC10908861:
Results are given in words; binding and its absence hold for the method and conditions named. In cells and extracts the contact can be indirect. A yes stands for co-enrichment or nearness to the bait. Other partners may have been found. Tags and fused reporters may be left off the sequences shown.

Chains of the proteins cited; added tags and fusions are not shown.
UniProt P21796: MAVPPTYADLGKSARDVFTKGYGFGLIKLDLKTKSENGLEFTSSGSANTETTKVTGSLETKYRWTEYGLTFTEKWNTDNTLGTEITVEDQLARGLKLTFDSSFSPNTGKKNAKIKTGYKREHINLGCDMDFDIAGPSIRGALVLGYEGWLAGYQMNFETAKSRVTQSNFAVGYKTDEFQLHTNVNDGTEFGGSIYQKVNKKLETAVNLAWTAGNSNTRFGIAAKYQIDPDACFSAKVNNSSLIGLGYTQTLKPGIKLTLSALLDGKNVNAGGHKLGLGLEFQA

Molecular target: T1, uSLC35A4 protein with C-terminal Flag tag (human) (UniProt L0R6Q1)
T1 sequence: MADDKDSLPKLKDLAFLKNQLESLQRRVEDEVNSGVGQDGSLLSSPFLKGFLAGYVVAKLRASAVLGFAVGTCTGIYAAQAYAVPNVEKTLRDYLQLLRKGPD
Assay: affinity purification with mass spectrometry; Flag-tagged ORF peptide expressed in HEK293T (48 h), lysed in 50 mM Tris HCl pH 7.4, 150 mM NaCl, 1 mM EDTA, 1% Triton X-100; anti-Flag M2 magnetic beads overnight at 4 °C; in-gel digestion, label-free quantification; empty vector as negative control, triplicate

Q: How did the binding turn out when VDAC1 (from UniProt P21796 1-283) was run?
A: binds
